Source: the supplement of paper PMC4604168 (melanoma cell lines)
This is one part of the list. Many values rest on one well or one pass, so single values are uncertain.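 Cells were imaged in 1,536-well plates, and nuclei stained with an antibody against cleaved PARP were counted against all DNA-stained nuclei to give the apoptosis fraction. Screening doses were chosen to leave most cells alive, and resting and induced cleaved-PARP levels differ strongly between cell lines.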

Columns and labels:
Test in all cases: cleaved PARP positive nuclei fraction relative to DMSO control; melanoma cells; higher = more apoptosis
Conditions in all cases: library dose: low library concentration; 72 h
501Mel = system: 501Mel
A101D = system: A101D
A2058 = system: A2058
A375 = system: A375
C32 = system: C32
CBRC008 = system: CBRC008 (line from a melanoma biopsy)
CBRC013 = system: CBRC013 (line from a melanoma biopsy)
CBRC014 = system: CBRC014 (line from a melanoma biopsy)
CBRC016 = system: CBRC016 (line from a melanoma biopsy)
CBRC017 = system: CBRC017 (line from a melanoma biopsy)

Row | Compound | cleaved PARP positive nuclei fraction (501Mel) | cleaved PARP positive nuclei fraction (A101D) | cleaved PARP positive nuclei fraction (A2058) | cleaved PARP positive nuclei fraction (A375) | cleaved PARP positive nuclei fraction (C32) | cleaved PARP positive nuclei fraction (CBRC008) | cleaved PARP positive nuclei fraction (CBRC013) | cleaved PARP positive nuclei fraction (CBRC014) | cleaved PARP positive nuclei fraction (CBRC016) | cleaved PARP positive nuclei fraction (CBRC017)
1 | Nc1cccc2c1CN(C1CCC(=O)NC1=O)C2=O (stereo not given) [lenalidomide] + COc1cc(Nc2ncc(F)c(Nc3ccc4c(n3)NC(=O)C(C)(C)O4)n2)cc(OC)c1OC [Tamatinib] (first compound 1 µM, partner dose 0.4 µM) | 84.2% | 150% | 97.7% | 96.8% | 41.5% | 366% | 91.9% | 97.8% | 64.1% | 86.2%
2 | CC1(C)NC(=O)N(c2ccc([N+](=O)[O-])c(C(F)(F)F)c2)C1=O [nilutamide] + O=C(O)c1ccc(-c2c[nH]c3ncc(-c4ccccc4)cc23)cc1C1CCCC1 [GSK650394] (first compound 1 µM, partner dose 0.16 µM) | 86.9% | 117% | 117% | 137% | 97.5% | 564% | 102% | 105% | 152% | 110%
3 | Cc1nc(Nc2ncc(C(=O)Nc3c(C)cccc3Cl)s2)cc(N2CCN(CCO)CC2)n1 [dasatanib] + Cc1cc(N2CCOCC2)cc2[nH]c(-c3c(NC[C@@H](O)c4cccc(Cl)c4)cc[nH]c3=O)nc12 [BMS536924] (first compound 0.004 µM, partner dose 0.2 µM) | 104% | 67.6% | 179% | 125% | 441% | 318% | 159% | 104% | 39.9% | 103%
4 | Cc1cc(N2CCOCC2)cc2[nH]c(-c3c(NC[C@@H](O)c4cccc(Cl)c4)cc[nH]c3=O)nc12 + C[C@@H]1CCN(C(=O)CC#N)C[C@@H]1N(C)c1ncnc2[nH]ccc12 [CP690550] (first compound 0.2 µM, partner dose 1 µM) | 116% | 44.3% | 57.9% | 164% | 160% | 147% | 113% | 105% | 149% | 80.9%
5 | Cn1c(Nc2ccc(C(F)(F)F)cc2)nc2cc(Oc3ccnc(-c4ncc(C(F)(F)F)[nH]4)c3)ccc21 + Cc1ccc(NC(=O)c2cccc(N(C)C)c2)cc1NC(=O)c1ccc(O)cc1 [ZM336372] (first compound 0.08 µM, partner dose 2 µM) | 289% | 136% | 260% | 482% | 181% | 291% | 159% | 106% | 113% | 116%
6 | OCc1c[nH]c2ccccc12 [Indole-3-carbinol] + O=C(O)c1ccc(-c2c[nH]c3ncc(-c4ccccc4)cc23)cc1C1CCCC1 [GSK650394] (first compound 0.8 µM, partner dose 0.16 µM) | 156% | 87% | 119% | 107% | 119% | 121% | 77.1% | 86.1% | 181% | 116%
7 | Cc1nc(Nc2ncc(C(=O)Nc3c(C)cccc3Cl)s2)cc(N2CCN(CCO)CC2)n1 [dasatanib] + O=C(Nc1cccc(Cl)c1)Nc1ncc(CCNc2ncnc3ccsc23)s1 [SNS314] (first compound 0.004 µM, partner dose 0.0008 µM) | 165% | 267% | 143% | 143% | 269% | 118% | 87.4% | 76.2% | 50.9% | 181%
8 | Cn1c(Nc2ccc(C(F)(F)F)cc2)nc2cc(Oc3ccnc(-c4ncc(C(F)(F)F)[nH]4)c3)ccc21 + O=C(O)c1ccc(-c2c[nH]c3ncc(-c4ccccc4)cc23)cc1C1CCCC1 [GSK650394] (first compound 0.08 µM, partner dose 0.16 µM) | 150% | 67.5% | 236% | 297% | 74% | 92.3% | 149% | 116% | 127% | 135%
9 | CC1(C)NC(=O)N(c2ccc([N+](=O)[O-])c(C(F)(F)F)c2)C1=O [nilutamide] + Cc1cc(N2CCOCC2)cc2[nH]c(-c3c(NC[C@@H](O)c4cccc(Cl)c4)cc[nH]c3=O)nc12 [BMS536924] (first compound 1 µM, partner dose 0.2 µM) | 101% | 83% | 65.8% | 179% | 117% | 389% | 115% | 103% | 68.7% | 83.5%
10 | Nc1cccc2c1CN(C1CCC(=O)NC1=O)C2=O (stereo not given) [lenalidomide] + CN(NC(=O)CC(=O)NN(C)C(=S)c1ccccc1)C(=S)c1ccccc1 [STA4783] (first compound 1 µM, partner dose 0.006 µM) | 341% | 105% | 96.7% | 2210% | 139% | 907% | 118% | 636% | 156% | 154%
